Assay results: PubChem BioAssay AID651593 (National Center for Advancing Translational Sciences (NCATS), 2012)
About 860 (78%) of roughly 1,100 compounds were called active. The set was probably picked from earlier hits. The shares of active, inactive and inconclusive entries below differ from those in the screen. The call rests on the fitted dose curve; in most records, active means well fitted activation curve with a large enough effect; inconclusive means small, poorly fitted or top-dose-only effect; inactive means flat fitted curve, though single readings scatter. A potency beside an inconclusive call is a rough fit, not a confirmed value.

Assay: qHTS of Nrf2 Activators: Hit Validation in Primary Assay; further: nearly all actives have a fitted effect of over 70% in size
Conditions: Nrf2/ARE reporter cell assay; Potency: activation; series mostly up to 46.1 µM
Summary of the method: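 Luminescence from Steady-Glo lysis reagent, read after 30 min, reported ARE-luciferase activity in AREc32_fluc stable cells. Compounds were tested at several concentrations, incubated 24 h at 37 °C with 5% CO2 following overnight seeding.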
Potency means the concentration at half of the fitted maximal effect.

Row | Compound | Potency
1 | O=[N+]([O-])c1cccc(-c2cn(-c3ccccc3)c(=S)[nH]2)c1 | inactive
2 | S=c1[nH]nc(-c2ccco2)n1/N=C/c1ccccc1 | inconclusive: 16.4 µM [activator, partial curve]
3 | COc1cc(/C=C/c2ccc3cccc(O)c3n2)cc(OC)c1OC | inactive
4 | COc1ccc(NC(=O)C2CC(=O)N/C(=N/N=C/c3ccco3)S2)cc1 (configuration not stated) | inconclusive: 1.64 µM [activator, full curve]
5 | Oc1[nH]c2ccccc2c1N=NC(=S)N1CCOCC1 | inconclusive: 5.8 µM [activator, single point]
6 | Cc1cc(N/N=C/c2c(O)ccc3ccccc23)nc(-c2ccccc2O)n1 | inactive
7 | O=C(Nc1cccc(/C=C/c2ccccn2)c1)c1ccc(-n2cncn2)cc1 | inactive
8 | Cc1ccc(C)c(NC(=S)c2nc3ccccc3s2)c1 | inconclusive: 2.31 µM [activator, full curve]
9 | O=C(c1ccco1)c1cn(CC(=O)N2CCCc3ccccc32)c2ccccc12 | inactive
10 | O=S1(=O)C=C(Sc2nc3cc(Cl)ccc3o2)c2ccccc21 | inconclusive: 5.8 µM [activator, single point]
11 | O=C(N/N=C\c1ccc(Cl)cc1)c1sccc1-n1cccc1 | inconclusive: 2.59 µM [activator, full curve]
12 | S=c1[nH]nc(-c2ccccc2)n1/N=C/C=C/c1ccco1 | inactive
13 | O=C(CSc1ncnc2sc3c(c12)CCCC3)c1ccco1 | inconclusive: 1.46 µM [activator, full curve]
14 | CCOC(=O)Cc1csc(NC(=O)/C=C/c2ccco2)n1 | inconclusive: 1.03 µM [activator, full curve]
15 | CNc1ccc(Br)cc(C(=O)/C=C/c2cccc(OC)c2)c1=O | inconclusive: 2.31 µM [activator, single point]
16 | CCCc1cc(C(N)=O)c(NC(=O)c2ccco2)s1 | active: 4.61 µM
17 | NS(=O)(=O)c1ccc(O)c(NC(=O)c2ccc([N+](=O)[O-])o2)c1 | inconclusive: 4.61 µM [activator, single point]
18 | O=[N+]([O-])c1ccc(/C=N/N=C/c2ccc([N+](=O)[O-])o2)o1 | inconclusive: 0.731 µM [activator, single point]
19 | Cc1sc(NC(=S)NC(=O)c2ccco2)c(C(N)=O)c1C | inconclusive: 4.11 µM [activator, full curve]
20 | Cn1cnnc1Sc1ccc(/C=C/C(=O)c2ccc(O)cc2)cc1[N+](=O)[O-] | inconclusive: 5.8 µM [activator, single point]
21 | N/C(=N\OC(=O)/C=C/c1ccccc1)c1cccnc1 | active: 20.6 µM
22 | O=C(Nc1ccc2oc(-c3ccncc3)nc2c1)c1ccc([N+](=O)[O-])o1 | inconclusive: 4.61 µM [activator, single point]
23 | COc1cccc(C2=CC(c3cccs3)n3nnnc3N2)c1 (configuration not stated) | inconclusive: 16.4 µM [activator, partial curve]
24 | C/C(=N\NC(=O)c1cccc(S(=O)(=O)Nc2cccc(Cl)c2)c1)c1cccs1 | inactive

3 of these compounds, set out differently:
O=C(N/N=C\c1ccc(Cl)cc1)c1sccc1-n1cccc1
  Potency: inconclusive: 2.59 µM [activator, full curve]
S=c1[nH]nc(-c2ccccc2)n1/N=C/C=C/c1ccco1
  Potency: inactive
O=C(CSc1ncnc2sc3c(c12)CCCC3)c1ccco1
  Potency: inconclusive: 1.46 µM [activator, full curve]

Later entries.

Row | Compound | Potency
25 | Cc1ccc(S(=O)(=O)c2nc(S(C)(=O)=O)sc2N2CCC(C)CC2)cc1 | active: 20.6 µM
26 | COc1ccccc1NC(=O)c1ncn(-c2ccccc2)n1 | inconclusive: 4.11 µM [activator, partial curve]
27 | COc1ccccc1C(=O)O/N=C(\N)c1ccc(Cl)cc1 | inconclusive: 5.8 µM [activator, partial curve]
28 | O=C(/C=C/c1ccco1)NC(=S)Nc1ccccc1N1CCCC1 | inconclusive: 2.59 µM [activator, full curve]
29 | COc1ccccc1Nc1nc2ccccc2n2cnnc12 | inconclusive: 3.66 µM [activator, single point]
30 | COC(=O)[C@@H]1Cc2c([nH]c3ccccc23)C(C)(C)N1C(=O)CCl | inconclusive: 5.8 µM [activator, single point]
31 | Nn1c(-c2ccccc2)nc2cc(Cl)ccc2c1=O | inconclusive: 5.8 µM [activator, partial curve]
32 | O=C(/C=C/c1ccco1)NCC(=O)N/N=C/c1ccc(Cl)cc1 | inconclusive: 2.06 µM [activator, full curve]
33 | CN1C2CCC1/C(=C\c1ccc(F)cc1)C(=O)/C2=C/c1ccc(F)cc1 | inconclusive: 5.8 µM [activator, single point]
34 | Cc1cc(CNC(=O)c2cccc([N+](=O)[O-])c2)c2ccccc2n1 | inactive
35 | CNc1ccc(Br)cc(C(=O)/C=C/c2ccc(Cl)cc2Cl)c1=O | inconclusive: 3.66 µM [activator, single point]
36 | COc1cc2c(cc1OC)/C(=C/c1ccc(Cl)cc1)C(=O)OC2 | inconclusive: 4.61 µM [activator, full curve]
37 | OCC1OC(n2cnc3c(NCc4ccccc4O)ncnc32)C(O)C1O (configuration not stated) | inconclusive: 7.31 µM [activator, partial curve]
38 | COc1nc(-c2ccccc2)cc(-c2ccccc2)n1 | inconclusive: 5.17 µM [activator, partial curve]
39 | Oc1c(-c2cc(-c3ccco3)[nH]n2)ccc2ccccc12 | active: 2.31 µM
40 | COc1cc(OC)cc(C(=O)O/N=C(\N)c2cccc(C)c2)c1 | inactive
41 | COc1ccccc1NC(=O)/C(C#N)=C/C=C/c1ccco1 | inconclusive: 2.91 µM [activator, full curve]
42 | O=C(c1ccc([N+](=O)[O-])o1)N1CCN(c2nc3c(Cl)cccc3s2)CC1 | inconclusive: 4.61 µM [activator, single point]
43 | Cc1ccc(N=C2NC(=O)S/C2=C\c2ccco2)cc1 | active: 7.31 µM
44 | Cc1cccc(-c2nnc(-c3cccc4ccccc34)o2)c1 | active: 5.17 µM
45 | FC(F)(F)c1nnc2c(Sc3ccccn3)nc3ccccc3n12 | inconclusive: 5.8 µM [activator, single point]
46 | Clc1cc(Cl)cc(Nc2ncnc(-n3cccc3)n2)c1 | active: 2.59 µM
47 | COC(=O)c1ccc2nc(-c3cccc(Br)c3)c(Cc3ccccc3OC)n2c1 | inconclusive: 2.59 µM [activator, full curve]
